Assay results reported in PMC8324795.
Like-named read-outs stand apart in the source and are kept apart here. Results are given in words; binding and its absence hold for the method and conditions named. Binding seen in cells or lysates may run through a third protein. Some binding calls cover weakened binding; strength is not graded here. For some assays here: Tags and fused reporters may be left off the sequences shown.

Sequences of proteins named here, by UniProt entry; tags and fusion partners are left off.
UniProt O75396: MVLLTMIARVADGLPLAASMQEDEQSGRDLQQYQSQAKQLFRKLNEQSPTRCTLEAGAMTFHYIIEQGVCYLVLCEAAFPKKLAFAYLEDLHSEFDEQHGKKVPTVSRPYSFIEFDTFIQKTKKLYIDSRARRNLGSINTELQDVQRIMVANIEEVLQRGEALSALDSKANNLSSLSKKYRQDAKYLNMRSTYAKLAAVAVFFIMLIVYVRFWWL
UniProt O00214: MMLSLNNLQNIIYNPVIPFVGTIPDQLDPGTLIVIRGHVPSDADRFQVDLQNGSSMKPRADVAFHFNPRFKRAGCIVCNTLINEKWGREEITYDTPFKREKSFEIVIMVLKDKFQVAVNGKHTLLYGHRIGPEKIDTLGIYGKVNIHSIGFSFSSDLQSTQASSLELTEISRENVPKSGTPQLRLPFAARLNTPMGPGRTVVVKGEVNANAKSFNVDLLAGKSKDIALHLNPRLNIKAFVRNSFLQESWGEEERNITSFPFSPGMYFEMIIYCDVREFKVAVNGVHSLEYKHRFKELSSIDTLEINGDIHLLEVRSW
UniProt P61081: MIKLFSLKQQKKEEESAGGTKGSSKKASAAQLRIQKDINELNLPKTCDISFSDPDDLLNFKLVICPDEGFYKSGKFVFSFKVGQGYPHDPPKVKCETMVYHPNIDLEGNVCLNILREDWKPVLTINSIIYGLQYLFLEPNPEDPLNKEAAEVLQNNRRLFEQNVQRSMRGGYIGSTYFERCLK

T1: FLAG-tagged FKBP51 (FK506-binding protein 51), expressed in SH-SY5Y cells (UniProt Q13451)
T1 sequence: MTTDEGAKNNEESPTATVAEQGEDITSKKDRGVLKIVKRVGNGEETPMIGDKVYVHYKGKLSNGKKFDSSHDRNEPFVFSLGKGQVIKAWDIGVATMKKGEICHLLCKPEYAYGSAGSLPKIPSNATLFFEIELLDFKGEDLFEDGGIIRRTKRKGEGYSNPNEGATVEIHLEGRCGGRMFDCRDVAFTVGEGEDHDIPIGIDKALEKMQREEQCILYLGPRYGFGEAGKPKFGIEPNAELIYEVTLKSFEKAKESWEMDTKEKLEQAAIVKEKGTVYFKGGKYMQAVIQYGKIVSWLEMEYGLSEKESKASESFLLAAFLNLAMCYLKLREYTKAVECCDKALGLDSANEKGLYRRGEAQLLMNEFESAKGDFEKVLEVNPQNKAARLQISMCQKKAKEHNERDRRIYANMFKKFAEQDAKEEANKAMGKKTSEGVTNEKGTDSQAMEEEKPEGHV


How the values were obtained:
[1] = target: T1, FLAG-tagged FKBP51 (FK506-binding protein 51), expressed in SH-SY5Y cells; assay: co-IP; SH-SY5Y cells 3 days after transfection; lysate in 20 mM Tris-HCl pH 8.0, 100 mM NaCl, 1 mM EDTA, 0.5% Igepal; FLAG or GFP antibody overnight at 4 °C, protein G Dynabeads; western blot; some panels with 100 nM dexamethasone or vehicle for 4 h; TRIM16-FLAG IP in WT and FKBP5 KO cells
GFP-tagged SEC22B [2] = target: GFP-tagged SEC22B (UniProt O75396); assay: as above
[3] = target: T1, FLAG-tagged FKBP51 (FK506-binding protein 51), expressed in SH-SY5Y cells; assay: as above; remark: listed apart in the source
GFP-tagged SEC22B [4] = target: GFP-tagged SEC22B (UniProt O75396); assay: co-IP; FKBP5 KO SH-SY5Y cells, GFP-tagged SEC22B IP (GFP antibody, protein G Dynabeads), 100 nM dexamethasone or vehicle for 4 h; western blot

Row | Molecule | binding [1] | binding [3] | binding (GFP-tagged SEC22B [4]) | further results
1 | SEC22B in SH-SY5Y lysate (detected by blot in FLAG immunoprecipitates) (from UniProt O75396 1-215) | binds |  |  | 
2 | galectin-8 (GAL8) in SH-SY5Y lysate (from UniProt O00214 1-317) | binds |  |  | 
3 | FKBP51 in SH-SY5Y lysate (detected by blot in GFP-SEC22B and TRIM16 immunoprecipitates) (protein, UniProt Q13451 1-457) MTTDEGAKNNEESPTATVAEQGEDITSKKDRGVLKIVKRVGNGEETPMIGDKVYVHYKGKLSNGKKFDSSHDRNEPFVFSLGKGQVIKAWDIGVATMKKGEICHLLCKPEYAYGSAGSLPKIPSNATLFFEIELLDFKGEDLFEDGGIIRRTKRKGEGYSNPNEGATVEIHLEGRCGGRMFDCRDVAFTVGEGEDHDIPIGIDKALEKMQREEQCILYLGPRYGFGEAGKPKFGIEPNAELIYEVTLKSFEKAKESWEMDTKEKLEQAAIVKEKGTVYFKGGKYMQAVIQYGKIVSWLEMEYGLSEKESKASESFLLAAFLNLAMCYLKLREYTKAVECCDKALGLDSANEKGLYRRGEAQLLMNEFESAKGDFEKVLEVNPQNKAARLQISMCQKKAKEHNERDRRIYANMFKKFAEQDAKEEANKAMGKKTSEGVTNEKGTDSQAMEEEKPEGHV |  |  |  | binding (GFP-tagged SEC22B [2]): binds
4 | syntaxin 3 (STX3) in SH-SY5Y lysate (protein, UniProt Q13277 1-289) MKDRLEQLKAKQLTQDDDTDAVEIAIDNTAFMDEFFSEIEETRLNIDKISEHVEEAKKLYSIILSAPIPEPKTKDDLEQLTTEIKKRANNVRNKLKSMEKHIEEDEVRSSADLRIRKSQHSVLSRKFVEVMTKYNEAQVDFRERSKGRIQRQLEITGKKTTDEELEEMLESGNPAIFTSGIIDSQISKQALSEIEGRHKDIVRLESSIKELHDMFMDIAMLVENQGEMLDNIELNVMHTVDHVEKARDETKKAVKYQSQARKKLIIIIVLVVVLLGILALIIGLSVGLN |  | binds | binds weakly | 

Further lines, with some results ahead:

Row | binding [1] | binding [3] | binding (GFP-tagged SEC22B [4]) | Molecule | further results
5 | binds |  |  | UBC12 in SH-SY5Y lysate (from UniProt P61081 1-183) | 
6 |  | binds | binds weakly | synaptosomal-associated protein SNAP23 in SH-SY5Y lysate (protein, UniProt O00161 1-211) MDNLSSEEIQQRAHQITDESLESTRRILGLAIESQDAGIKTITMLDEQKEQLNRIEEGLDQINKDMRETEKTLTELNKCCGLCVCPCNRTKNFESGKAYKTTWGDGGENSPCNVVSKQPGPVTNGQLQQPTTGAASGGYIKRITNDAREDEMEENLTQVGSILGNLKDMALNIGNEIDAQNPQIKRITDKADTNRDRIDIANARAKKLIDS | 
